Here are results for 40 compounds from the supplement of paper PMC7024190.

The structures appear in SMILES notation. Counter-ions that a name gives are not always drawn. Some of the results follow. Repeats in this data set agree poorly, so a single value says little.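 Human embryonic kidney cells were transiently transfected with a plasmid bearing a Renilla luciferase gene under the HSV-TK promoter. This first-round screen tests roughly ten thousand compounds for ones that increase reporter output.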

The test relates to HEK 293FT. The experiment in a line: log relative Renilla luciferase luminescence (reporter expression vs reference, reference not stated) (log (base not stated)); higher = higher recombinant reporter expression. The note with it: 10 µM; time after transfection 48 h.
Regarding `NC(=O)c1cccc(N)c1` [3-Aminobenzamide], the log came out at 0.156.

As for `C/C=C1\C(=O)C[C@H]2[C@@H]3CCC4=CC(=O)CC[C@]4(C)[C@H]3CC[C@]12C` [Guggulsterone], the log was -0.116.

With `O=C(O)C(=O)O.[NH-][C@@H]1CCCC[C@H]1[NH-].[Pt+2]` [Oxaliplatin], the log was -0.012.

With `O=C(O)c1cc(O)c2ccc(Cl)cc2n1` [7-Chlorokynurenic acid], the log was -0.507.

As for `Cn1cc(/C=C2\C(=O)Nc3cccnc32)c2ccccc21`, the log was determined as 0.025.

Consider `Cc1[nH]c(/C=C2\C(=O)Nc3ccccc32)c(C)c1CCC(=O)O`, for which the log stood at 0.0174.

Consider `CC(C)(C)n1nc(-c2cccc3ccccc23)c2c(N)ncnc21` [1-Naphthyl PP1], for which the log is -0.00962.

Turning to `N[C@@H](CSC(c1ccccc1)(c1ccccc1)c1ccccc1)C(=O)O` [S-Trityl-L-cysteine], the log was -0.0131.

For `COC(=O)c1sccc1S(=O)(=O)Nc1ccc(Nc2ccccc2)cc1OC`, the log amounted to 0.0139.

Take `O=c1[nH]nc(Sc2ncc([N+](=O)[O-])s2)n1-c1ccc2c(c1)OCCO2`: the log was 0.0252.

For `CC(C)NCCN(C(C)C)S(=O)(=O)c1ccc(Cl)cc1Cl`, the log was -0.111.

For the compound `CCCc1c(OCCCOc2ccc(OCC(=O)O)cc2)ccc(C(C)=O)c1O`, the log is 0.106.

Regarding `CCN(CC)CCOC(=O)c1cc(Cl)c(N)cc1OC` [SDZ 205-557 hydrochloride], the log is -0.0464.

Regarding `CC[C@H](NC(=O)c1c(C)c(-c2ccccc2)nc2ccccc12)c1ccccc1`, the log is -0.044.

On to `CC(=O)Nc1ccc(O)cc1` [Acetaminophen], for which the log worked out at 0.023.

`O=C1NC(=O)C(c2ccccc2[N+](=O)[O-])=C1Nc1ccc(O)c(Cl)c1`: the log worked out at 0.0569.

On to `COc1ccc2cc([C@H](C)C(=O)O)ccc2c1` [Naproxen sodium], for which the log was -0.0739.

With `N#Cc1cc2nc(O)c(O)nc2cc1[N+](=O)[O-]` [CNQX disodium salt], the log came to 0.188.

For `O=C1c2ccccc2C(Cc2ccnc(F)c2)(Cc2ccnc(F)c2)c2ccccc21`, the log is 0.0437.

In the case of `c1ccc(C(O[C@@H]2CCCN(CCc3ccc4c(c3)OCO4)C2)c2ccccc2)cc1` [Zamifenacin fumarate], the log is -0.0206.

For `COc1ccc2[nH]c(C(=O)c3ccccc3)cc2c1`, the log stood at 0.0569.

Consider `c1ccc(N2CCN(Cc3nc4ccccc4[nH]3)CC2)nc1` [ABT 724 trihydrochloride], for which the log was found to be 0.031.

`CCN(CC)CCOc1ccc(Cc2ccccc2)cc1` [DPPE fumarate]: the log was -0.012.

Take `O=C(O)C1=CCNCC1` [Isoguvacine hydrochloride]: the log is -0.648.

For `O=[N+]([O-])c1cccc2c[nH]nc12`, the log was -0.0785.

Take `Brc1c(NC2=NCCN2)ccc2nccnc12`: the log was determined as 0.0619.

In the case of `COc1ccc(NC(=O)c2ccc(-c3ccc(-c4noc(C)n4)cc3C)cc2)cc1N1CCN(C)CC1`, the log stood at 0.0753.

Turning to `CCOc1cc(C(=O)Nc2ccc(Cl)c(-c3nc4ccccc4[nH]3)c2)cc(OCC)c1OCC`, the log is -0.122.

With `C[C@@]1(O)[C@H](O)[C@@H](CO)O[C@H]1n1cnc2c(NC3CCCC3)nc(Cl)nc21`, the log was -0.0171.

In the case of `CN(C)CCC1(c2ccc(Cl)cc2)Cc2ccccc2C(=O)O1` (racemic) [(±)-AC 7954 hydrochloride], the log is -0.00193.

With `O=c1[nH]c2cc(Cl)ccc2c(O)c1-c1cccc(Oc2ccccc2)c1`, the log was -0.0428.

On to `COc1cc(C(=O)OCCCN2CCCN(CCCOC(=O)c3cc(OC)c(OC)c(OC)c3)CC2)cc(OC)c1OC` [Dilazep dihydrochloride], for which the log was determined as 0.144.

In the case of `COc1cc(C[C@H]2C(=O)OC[C@@H]2Cc2ccc(OC)c(OC)c2)ccc1O` [Arctigenin], the log is -1.2.

For `Nc1nccc(-c2ccc3noc(-c4ccc(Cl)cc4)c3c2)n1` [PIM 1 Inhibitor 2], the log came to 0.0106.

In the case of `Cl/C(=C\n1cncn1)c1ccc(Cl)cc1Cl` [Loreclezole hydrochloride], the log was -0.0404.

With `COCCCC/C(=N\OCCN)c1ccc(C(F)(F)F)cc1` [Fluvoxamine maleate], the log is -0.0983.

Regarding `Fc1ccc([C@@H]2CCNC[C@H]2COc2ccc3c(c2)OCO3)cc1` [Paroxetine maleate], the log was -0.0358.

For the compound `COc1cc2ncnc(Nc3ccc(Oc4ccccc4)cc3)c2cc1OC`, the log is -0.112.

With `CC(C)NC[C@H](O)COc1ccc(CC(N)=O)cc1` [S-(-)-Atenolol], the log was 0.1.

Regarding `CC(C)(C)c1ccc(/C=C/C(=O)Nc2ccc3c(c2)OCCO3)cc1`, the log is -0.135.
